Measurements taken from the supplement of paper PMC10849652.
Some of the results follow.

Chains of the proteins cited; added tags and fusions are not shown. Lines headed by an entry give the natural chain unless they say otherwise; changes in a name come on top.
UniProt Q5TCQ9: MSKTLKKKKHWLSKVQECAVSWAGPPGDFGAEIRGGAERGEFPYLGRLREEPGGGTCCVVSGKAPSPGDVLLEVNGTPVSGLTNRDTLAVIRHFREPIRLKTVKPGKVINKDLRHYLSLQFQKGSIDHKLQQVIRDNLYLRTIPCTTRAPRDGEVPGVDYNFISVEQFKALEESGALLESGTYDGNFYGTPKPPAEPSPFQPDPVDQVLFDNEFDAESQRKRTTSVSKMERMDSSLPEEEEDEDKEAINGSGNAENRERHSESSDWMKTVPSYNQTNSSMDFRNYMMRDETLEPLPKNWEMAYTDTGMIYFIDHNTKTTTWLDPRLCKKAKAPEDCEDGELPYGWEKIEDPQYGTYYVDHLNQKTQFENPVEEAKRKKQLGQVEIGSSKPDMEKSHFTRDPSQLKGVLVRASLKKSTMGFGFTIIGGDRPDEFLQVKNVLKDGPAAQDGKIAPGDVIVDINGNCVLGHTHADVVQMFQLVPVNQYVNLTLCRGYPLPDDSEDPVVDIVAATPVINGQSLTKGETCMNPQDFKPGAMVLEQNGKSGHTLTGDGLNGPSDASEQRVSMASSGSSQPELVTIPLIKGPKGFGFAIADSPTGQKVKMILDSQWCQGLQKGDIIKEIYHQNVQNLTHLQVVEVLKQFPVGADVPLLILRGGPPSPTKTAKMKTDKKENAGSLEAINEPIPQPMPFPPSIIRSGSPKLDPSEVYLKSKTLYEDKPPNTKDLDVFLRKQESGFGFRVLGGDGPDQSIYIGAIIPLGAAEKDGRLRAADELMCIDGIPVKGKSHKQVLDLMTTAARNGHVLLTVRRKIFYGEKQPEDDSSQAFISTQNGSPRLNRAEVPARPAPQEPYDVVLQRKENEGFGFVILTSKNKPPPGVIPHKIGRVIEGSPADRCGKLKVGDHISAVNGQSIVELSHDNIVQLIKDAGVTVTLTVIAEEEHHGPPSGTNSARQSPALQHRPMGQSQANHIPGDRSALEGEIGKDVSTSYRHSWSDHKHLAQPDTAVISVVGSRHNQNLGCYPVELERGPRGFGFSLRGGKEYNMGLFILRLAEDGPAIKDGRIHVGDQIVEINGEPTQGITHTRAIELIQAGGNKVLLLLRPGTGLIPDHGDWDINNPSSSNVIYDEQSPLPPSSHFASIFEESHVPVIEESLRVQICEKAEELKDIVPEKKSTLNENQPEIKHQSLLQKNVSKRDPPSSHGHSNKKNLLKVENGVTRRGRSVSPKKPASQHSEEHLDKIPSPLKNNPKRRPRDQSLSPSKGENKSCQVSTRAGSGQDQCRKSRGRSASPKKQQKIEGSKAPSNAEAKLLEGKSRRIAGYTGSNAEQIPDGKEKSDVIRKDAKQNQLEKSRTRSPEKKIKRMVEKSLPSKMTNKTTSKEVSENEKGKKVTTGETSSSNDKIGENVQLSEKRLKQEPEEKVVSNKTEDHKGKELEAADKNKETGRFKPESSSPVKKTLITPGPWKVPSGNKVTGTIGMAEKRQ
UniProt Q9Y383: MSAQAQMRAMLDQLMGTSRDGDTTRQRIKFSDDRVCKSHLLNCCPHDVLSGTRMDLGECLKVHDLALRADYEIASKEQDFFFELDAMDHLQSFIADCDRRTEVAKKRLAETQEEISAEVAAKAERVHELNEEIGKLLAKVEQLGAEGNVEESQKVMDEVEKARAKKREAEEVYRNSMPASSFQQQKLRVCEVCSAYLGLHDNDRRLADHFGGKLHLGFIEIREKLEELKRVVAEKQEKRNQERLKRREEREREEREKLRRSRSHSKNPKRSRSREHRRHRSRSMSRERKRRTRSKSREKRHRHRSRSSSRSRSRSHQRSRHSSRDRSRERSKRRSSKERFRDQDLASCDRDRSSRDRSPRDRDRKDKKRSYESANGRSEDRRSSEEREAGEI
UniProt P49137, whole entry, looked up: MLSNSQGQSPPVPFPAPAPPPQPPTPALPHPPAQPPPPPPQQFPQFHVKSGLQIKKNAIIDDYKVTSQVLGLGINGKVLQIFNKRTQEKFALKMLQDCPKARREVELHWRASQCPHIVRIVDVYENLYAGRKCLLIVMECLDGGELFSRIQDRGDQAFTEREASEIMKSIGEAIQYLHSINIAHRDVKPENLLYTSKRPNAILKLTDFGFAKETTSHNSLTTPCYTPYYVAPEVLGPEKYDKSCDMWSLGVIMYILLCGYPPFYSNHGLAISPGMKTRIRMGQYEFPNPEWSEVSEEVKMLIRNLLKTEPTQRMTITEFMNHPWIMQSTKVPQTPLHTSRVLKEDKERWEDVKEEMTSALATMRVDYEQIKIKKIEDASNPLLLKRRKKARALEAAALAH
UniProt Q8WV07: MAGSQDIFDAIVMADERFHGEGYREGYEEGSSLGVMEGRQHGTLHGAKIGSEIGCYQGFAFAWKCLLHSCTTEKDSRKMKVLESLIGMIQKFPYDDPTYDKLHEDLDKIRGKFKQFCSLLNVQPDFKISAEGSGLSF
UniProt Q9NQ29: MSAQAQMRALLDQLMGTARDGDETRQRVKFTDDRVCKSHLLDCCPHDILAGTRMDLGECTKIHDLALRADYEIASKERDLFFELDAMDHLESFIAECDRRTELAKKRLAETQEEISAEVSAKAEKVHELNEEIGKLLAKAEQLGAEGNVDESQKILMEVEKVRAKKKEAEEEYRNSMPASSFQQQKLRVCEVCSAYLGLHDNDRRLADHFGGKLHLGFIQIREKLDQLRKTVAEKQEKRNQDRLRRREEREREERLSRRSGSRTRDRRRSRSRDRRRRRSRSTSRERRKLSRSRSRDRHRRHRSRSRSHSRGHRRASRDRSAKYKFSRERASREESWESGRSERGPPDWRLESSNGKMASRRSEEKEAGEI
UniProt Q9Y2E5: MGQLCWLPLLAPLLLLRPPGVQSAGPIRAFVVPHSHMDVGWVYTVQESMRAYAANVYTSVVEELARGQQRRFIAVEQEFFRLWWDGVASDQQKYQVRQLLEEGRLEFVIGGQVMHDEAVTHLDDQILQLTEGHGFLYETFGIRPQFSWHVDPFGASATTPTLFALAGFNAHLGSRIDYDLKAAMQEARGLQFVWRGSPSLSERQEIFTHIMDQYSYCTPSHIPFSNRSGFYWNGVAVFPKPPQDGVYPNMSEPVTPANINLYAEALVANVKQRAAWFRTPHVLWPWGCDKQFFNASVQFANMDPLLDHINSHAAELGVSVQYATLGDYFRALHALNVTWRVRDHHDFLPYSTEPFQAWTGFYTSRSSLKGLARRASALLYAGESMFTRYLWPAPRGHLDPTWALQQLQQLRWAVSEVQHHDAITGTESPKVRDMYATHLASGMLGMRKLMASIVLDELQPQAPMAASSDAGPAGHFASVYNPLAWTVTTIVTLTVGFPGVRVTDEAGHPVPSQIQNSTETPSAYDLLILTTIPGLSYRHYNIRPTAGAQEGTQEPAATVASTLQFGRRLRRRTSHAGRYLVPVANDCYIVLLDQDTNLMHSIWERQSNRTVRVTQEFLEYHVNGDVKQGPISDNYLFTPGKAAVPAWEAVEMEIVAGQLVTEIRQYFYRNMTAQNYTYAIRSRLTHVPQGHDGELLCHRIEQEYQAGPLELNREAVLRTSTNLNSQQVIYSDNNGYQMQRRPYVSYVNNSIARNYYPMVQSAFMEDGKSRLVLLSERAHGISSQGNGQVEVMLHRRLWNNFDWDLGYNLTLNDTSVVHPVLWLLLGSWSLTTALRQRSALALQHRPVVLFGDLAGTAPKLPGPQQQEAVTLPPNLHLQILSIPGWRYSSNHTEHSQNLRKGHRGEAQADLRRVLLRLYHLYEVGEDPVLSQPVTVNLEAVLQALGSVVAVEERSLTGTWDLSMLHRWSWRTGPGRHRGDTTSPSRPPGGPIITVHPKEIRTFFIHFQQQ
UniProt Q12851: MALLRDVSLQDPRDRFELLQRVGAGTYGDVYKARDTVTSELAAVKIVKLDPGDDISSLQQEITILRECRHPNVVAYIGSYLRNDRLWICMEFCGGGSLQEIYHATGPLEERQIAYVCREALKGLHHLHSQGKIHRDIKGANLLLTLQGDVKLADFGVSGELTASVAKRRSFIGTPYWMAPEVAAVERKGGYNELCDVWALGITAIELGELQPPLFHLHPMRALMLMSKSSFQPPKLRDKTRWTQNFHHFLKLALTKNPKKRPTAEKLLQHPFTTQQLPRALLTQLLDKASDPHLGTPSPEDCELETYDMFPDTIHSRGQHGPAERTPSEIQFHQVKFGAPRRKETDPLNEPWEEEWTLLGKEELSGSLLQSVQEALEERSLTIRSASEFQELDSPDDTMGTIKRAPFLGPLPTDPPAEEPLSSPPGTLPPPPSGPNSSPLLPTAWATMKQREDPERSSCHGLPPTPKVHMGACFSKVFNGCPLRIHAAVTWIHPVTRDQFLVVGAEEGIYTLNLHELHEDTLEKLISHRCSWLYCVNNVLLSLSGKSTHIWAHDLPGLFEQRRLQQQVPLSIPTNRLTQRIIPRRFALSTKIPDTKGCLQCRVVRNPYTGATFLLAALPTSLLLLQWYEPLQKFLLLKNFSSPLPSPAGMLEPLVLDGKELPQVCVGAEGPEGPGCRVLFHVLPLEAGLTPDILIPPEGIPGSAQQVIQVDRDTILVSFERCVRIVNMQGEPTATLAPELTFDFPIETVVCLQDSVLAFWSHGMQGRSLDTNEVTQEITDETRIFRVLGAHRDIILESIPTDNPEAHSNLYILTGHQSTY
UniProt Q8IVH8: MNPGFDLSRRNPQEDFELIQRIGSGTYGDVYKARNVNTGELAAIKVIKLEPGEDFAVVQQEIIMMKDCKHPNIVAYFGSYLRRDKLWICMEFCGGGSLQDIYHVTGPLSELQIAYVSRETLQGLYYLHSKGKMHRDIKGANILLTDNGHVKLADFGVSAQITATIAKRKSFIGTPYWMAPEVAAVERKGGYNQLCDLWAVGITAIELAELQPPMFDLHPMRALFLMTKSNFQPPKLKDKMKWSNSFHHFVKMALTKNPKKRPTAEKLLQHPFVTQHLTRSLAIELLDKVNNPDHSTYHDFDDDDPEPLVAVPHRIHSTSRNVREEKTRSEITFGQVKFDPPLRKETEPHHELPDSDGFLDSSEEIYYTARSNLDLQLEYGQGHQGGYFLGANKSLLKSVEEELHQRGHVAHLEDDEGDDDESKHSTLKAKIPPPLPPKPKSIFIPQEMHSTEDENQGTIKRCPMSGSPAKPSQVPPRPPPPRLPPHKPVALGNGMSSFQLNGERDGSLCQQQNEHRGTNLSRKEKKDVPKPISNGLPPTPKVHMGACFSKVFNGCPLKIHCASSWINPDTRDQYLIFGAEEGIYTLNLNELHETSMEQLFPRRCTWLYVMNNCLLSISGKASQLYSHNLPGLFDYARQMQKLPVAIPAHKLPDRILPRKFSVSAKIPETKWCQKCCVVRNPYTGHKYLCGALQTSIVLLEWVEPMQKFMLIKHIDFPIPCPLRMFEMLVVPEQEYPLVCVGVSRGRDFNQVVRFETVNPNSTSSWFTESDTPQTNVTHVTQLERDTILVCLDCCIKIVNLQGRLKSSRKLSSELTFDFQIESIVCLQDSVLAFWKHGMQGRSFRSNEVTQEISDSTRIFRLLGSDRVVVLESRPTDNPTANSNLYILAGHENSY
UniProt Q13164: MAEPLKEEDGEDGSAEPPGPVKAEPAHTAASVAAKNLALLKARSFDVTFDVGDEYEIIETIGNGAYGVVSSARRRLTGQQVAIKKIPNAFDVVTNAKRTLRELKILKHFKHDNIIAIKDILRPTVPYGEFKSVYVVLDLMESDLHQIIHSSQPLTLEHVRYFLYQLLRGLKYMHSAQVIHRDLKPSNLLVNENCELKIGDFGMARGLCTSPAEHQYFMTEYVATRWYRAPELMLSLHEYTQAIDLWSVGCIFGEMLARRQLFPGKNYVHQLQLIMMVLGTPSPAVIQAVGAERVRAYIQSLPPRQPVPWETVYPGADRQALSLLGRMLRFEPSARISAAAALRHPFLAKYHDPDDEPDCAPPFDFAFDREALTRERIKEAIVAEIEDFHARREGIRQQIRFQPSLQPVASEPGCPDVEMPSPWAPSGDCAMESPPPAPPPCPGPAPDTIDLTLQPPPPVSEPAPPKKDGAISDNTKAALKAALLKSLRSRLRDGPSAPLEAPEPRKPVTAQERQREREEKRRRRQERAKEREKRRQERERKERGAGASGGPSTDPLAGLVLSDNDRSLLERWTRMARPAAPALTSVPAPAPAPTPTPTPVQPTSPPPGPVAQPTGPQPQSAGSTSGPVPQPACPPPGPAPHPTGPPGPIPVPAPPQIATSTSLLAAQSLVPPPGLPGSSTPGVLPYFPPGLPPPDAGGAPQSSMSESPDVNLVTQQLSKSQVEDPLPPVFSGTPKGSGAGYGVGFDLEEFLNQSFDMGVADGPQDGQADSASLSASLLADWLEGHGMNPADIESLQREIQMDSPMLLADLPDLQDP
UniProt Q9H063: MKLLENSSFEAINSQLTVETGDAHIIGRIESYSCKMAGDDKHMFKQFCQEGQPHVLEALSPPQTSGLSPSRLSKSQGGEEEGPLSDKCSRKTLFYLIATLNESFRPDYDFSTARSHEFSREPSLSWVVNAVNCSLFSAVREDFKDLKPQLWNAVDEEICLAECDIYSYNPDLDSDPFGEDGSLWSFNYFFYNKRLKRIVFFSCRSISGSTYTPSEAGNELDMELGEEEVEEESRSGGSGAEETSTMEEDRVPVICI

Columns and labels:
Assay in all cases: log2 fold change, soluble protein after heating vs DMSO (PISA); higher = thermal stabilisation; K562 cells, 10 uM, 30 min; active = over 0.2 and 3.5 SD of the protein, either way, in both replicates (recomputed)
[1] = compound: CS(=O)(=O)c1ccc(-c2cnc(N)c(C(=O)Nc3ccccc3)n2)cc1
Procedure, shortened: (§1)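 K562 cells at 2×10^6 cells/mL were exposed to 10 μM compound for 30 min, then aliquots were heated for 3 min across 48°C-58°C, pooled, and extracted in PBS containing 0.5% NP-40 at 4°C. The supernatant after 21,000xg for 90 min was taken as soluble protein and measured by TMTpro 16plex LC-MS/MS with channel sums equalised. Thermal stability is reported relative to control samples, with values from duplicates. Fold changes are given on a log2 scale.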

crizotinib = compound: C[C@@H](Oc1cc(-c2cnn(C3CCNCC3)c2)cnc1N)c1c(Cl)ccc(F)c1Cl [crizotinib]
Procedure, shortened: as §1

[2] = compound: C[C@@H]1COCCN1C2=NC(=NC(=C2)C3(CC3)S(=O)(=O)C)C4=C5C=CNC5=CC=C4
Procedure, shortened: as §1

[3] = compound: C[C@H](C1=CC=C(C=C1)C(=O)NC2=C3C=CNC3=NC=C2)N
Procedure, shortened: as §1

gandotinib = compound: Cc1cc(Nc2cc(CN3CCOCC3)c3nc(C)c(Cc4ccc(Cl)cc4F)n3n2)n[nH]1 [gandotinib]
Procedure, shortened: as §1

[4] = compound: Cc1cc(SCc2sc(-c3ccc(C(F)(F)F)cc3)nc2C)ccc1OCC(=O)O
Procedure, shortened: as §1

doramapimod = compound: Cc1ccc(-n2nc(C(C)(C)C)cc2NC(=O)Nc2ccc(OCCN3CCOCC3)c3ccccc23)cc1 [doramapimod]
Procedure, shortened: as §1

ispinesib = compound: Cc1ccc(C(=O)N(CCCN)[C@@H](c2nc3cc(Cl)ccc3c(=O)n2Cc2ccccc2)C(C)C)cc1 [ispinesib]
Procedure, shortened: as §1

bafetinib = compound: Cc1ccc(NC(=O)c2ccc(CN3CC[C@H](N(C)C)C3)c(C(F)(F)F)c2)cc1Nc1nccc(-c2cncnc2)n1 [bafetinib]
Procedure, shortened: as §1

[5] = compound: Cc1cccc(CC(=O)N2CCc3c2ccc(-c2cn(C)c4ncnc(N)c24)c3F)n1
Procedure, shortened: as §1

nilotinib = compound: Cc1cn(-c2cc(NC(=O)c3ccc(C)c(Nc4nccc(-c5cccnc5)n4)c3)cc(C(F)(F)F)c2)cn1 [nilotinib]
Procedure, shortened: as §1

[6] = compound: Cc1nc(Nc2n[nH]c3c2CN(C(=O)N[C@H](CN(C)C)c2ccccc2)C3(C)C)c2sccc2n1
Procedure, shortened: as §1

dasatinib = compound: Cc1nc(Nc2ncc(C(=O)Nc3c(C)cccc3Cl)s2)cc(N2CCN(CCO)CC2)n1 [dasatinib]
Procedure, shortened: as §1

[7] = compound: Cc1ncc(-c2ccnc(Nc3ccc(S(C)(=O)=O)cc3)n2)n1C(C)C
Procedure, shortened: as §1

[8] = compound: Cn1cc(-c2ccc3c(c2)CCN3C(=O)Cc2cccc(C(F)(F)F)c2)c2c(N)ncnc21
Procedure, shortened: as §1

[9] = compound: Cn1cc(-c2ccc3nnc(C(F)(F)c4ccc5ncccc5c4)n3n2)cn1
Procedure, shortened: as §1

tipifarnib = compound: Cn1cncc1[C@@](N)(c1ccc(Cl)cc1)c1ccc2c(c1)c(-c1cccc(Cl)c1)cc(=O)n2C [tipifarnib]
Procedure, shortened: as §1

mubritinib = compound: FC(F)(F)c1ccc(/C=C/c2nc(COc3ccc(CCCCn4ccnn4)cc3)co2)cc1 [mubritinib]
Procedure, shortened: as §1

duvelisib = compound: C[C@H](Nc1ncnc2nc[nH]c12)c1cc2cccc(Cl)c2c(=O)n1-c1ccccc1 [duvelisib]
Procedure, shortened: as §1

tozasertib = compound: Cc1cc(Nc2cc(N3CCN(C)CC3)nc(Sc3ccc(NC(=O)C4CC4)cc3)n2)n[nH]1 [tozasertib]
Procedure, shortened: as §1

MAP2K1 (UniProt Q02750)
log2 fold change [1]: inactive: 0.055
log2 fold change (crizotinib): inactive: -0.019
log2 fold change [2]: inactive: 0.088
log2 fold change [3]: inactive: -0.092
log2 fold change (gandotinib): inactive: 0.005
log2 fold change [4]: inactive: -0.038
log2 fold change (doramapimod): inactive: -0.05
log2 fold change (ispinesib): inactive: -0.009
log2 fold change (bafetinib): inactive: -0.026
log2 fold change [5]: inactive: -0.039
log2 fold change (nilotinib): inactive: -0.015
log2 fold change [6]: inactive: -0.052
log2 fold change (dasatinib): inactive: -0.063
log2 fold change [7]: inactive: 0.008
log2 fold change [8]: inactive: 0.023
log2 fold change [9]: inactive: 0.021
log2 fold change (tipifarnib): inactive: -0.024
log2 fold change (mubritinib): inactive: 0.015

MAGI3 isoform 1 (UniProt Q5TCQ9)
log2 fold change [1]: inactive: 0.181
log2 fold change (crizotinib): inactive: 0.067
log2 fold change [2]: inactive: 0.007
log2 fold change (duvelisib): inactive: -0.116
log2 fold change (tozasertib): inactive: -0.035
log2 fold change [4]: inactive: 0.082
log2 fold change (doramapimod): inactive: 0.038
log2 fold change (bafetinib): inactive: 0.019
log2 fold change (dasatinib): inactive: 0.074
log2 fold change (mubritinib): inactive: 0.197

LUC7L2 (UniProt Q9Y383)
log2 fold change [1]: inactive: -0.083
log2 fold change (crizotinib): inactive: 0.02
log2 fold change [2]: inactive: 0.053
log2 fold change [3]: active: -0.439
log2 fold change (gandotinib): inactive: 0.031
log2 fold change [4]: inactive: 0.03
log2 fold change (doramapimod): inactive: -0.03
log2 fold change (ispinesib): inactive: 0.111
log2 fold change (bafetinib): inactive: 0.035
log2 fold change [5]: inactive: 0.002
log2 fold change (nilotinib): inactive: 0.059
log2 fold change [6]: active: -2.75
log2 fold change (dasatinib): inactive: -0.01
log2 fold change [7]: inactive: -0.007
log2 fold change [8]: inactive: -0.033
log2 fold change [9]: inactive: -0.059
log2 fold change (tipifarnib): inactive: 0.049
log2 fold change (mubritinib): inactive: -0.07

MAFF (UniProt Q9ULX9)
log2 fold change [1]: inactive: -0.352
log2 fold change (crizotinib): inactive: 0.114
log2 fold change (duvelisib): inactive: -0.042
log2 fold change (gandotinib): inactive: 0.058
log2 fold change [4]: inactive: -0.048
log2 fold change (doramapimod): inactive: 0.046
log2 fold change (ispinesib): inactive: -0.104
log2 fold change (bafetinib): inactive: -0.07
log2 fold change [5]: inactive: -0.008
log2 fold change (nilotinib): inactive: -0.04
log2 fold change [6]: inactive: -0.005
log2 fold change (dasatinib): inactive: 0.077
log2 fold change [7]: inactive: 0.018
log2 fold change [9]: inactive: -0.05
log2 fold change (mubritinib): inactive: 0.093

MAPKAPK3 (UniProt Q16644)
log2 fold change [1]: inactive: -0.033
log2 fold change (crizotinib): inactive: -0.078
log2 fold change [2]: inactive: 0.048
log2 fold change [3]: inactive: 0.115
log2 fold change (gandotinib): inactive: -0.043
log2 fold change [4]: inactive: -0.021
log2 fold change (doramapimod): inactive: 0.314
log2 fold change (ispinesib): inactive: -0.111
log2 fold change (bafetinib): inactive: 0.258
log2 fold change [5]: inactive: 0
log2 fold change (nilotinib): inactive: 0.281
log2 fold change [6]: inactive: -0.03
log2 fold change (dasatinib): inactive: 0.002
log2 fold change [7]: inactive: -0.032
log2 fold change [8]: inactive: -0.005
log2 fold change [9]: inactive: 0
log2 fold change (tipifarnib): inactive: -0.048
log2 fold change (mubritinib): inactive: -0.04

MAPKAPK2 (UniProt P49137)
log2 fold change [1]: inactive: -0.032
log2 fold change (crizotinib): inactive: -0.082
log2 fold change [2]: inactive: 0.035
log2 fold change [3]: inactive: -0.019
log2 fold change (gandotinib): inactive: -0.066
log2 fold change [4]: inactive: 0.006
log2 fold change (doramapimod): inactive: 0.147
log2 fold change (ispinesib): inactive: -0.003
log2 fold change (bafetinib): inactive: 0.125
log2 fold change [5]: inactive: 0.017
log2 fold change (nilotinib): inactive: 0.145
log2 fold change [6]: inactive: 0.045
log2 fold change (dasatinib): inactive: -0.086
log2 fold change [7]: inactive: -0.011
log2 fold change [8]: inactive: -0.014
log2 fold change [9]: inactive: -0.022
log2 fold change (tipifarnib): inactive: -0.022
log2 fold change (mubritinib): inactive: -0.009

MAML1 (UniProt Q92585)
log2 fold change [1]: inactive: -0.022
log2 fold change (crizotinib): inactive: 0.074
log2 fold change [2]: inactive: 0.053
log2 fold change [3]: inactive: -0.056
log2 fold change (doramapimod): inactive: -0.038
log2 fold change (ispinesib): inactive: -0.006
log2 fold change [8]: inactive: 0.087
log2 fold change [9]: inactive: -0.009

LTO1 (UniProt Q8WV07)
log2 fold change [1]: inactive: 0.011
log2 fold change (crizotinib): inactive: 0.048
log2 fold change [2]: inactive: -0.083
log2 fold change [3]: inactive: -0.063
log2 fold change (gandotinib): inactive: -0.026
log2 fold change [4]: inactive: -0.042
log2 fold change (doramapimod): inactive: 0.032
log2 fold change (ispinesib): inactive: 0.051
log2 fold change (bafetinib): inactive: -0.013
log2 fold change [5]: inactive: -0.004
log2 fold change (nilotinib): inactive: -0.036
log2 fold change [6]: inactive: -0.072
log2 fold change (dasatinib): inactive: 0
log2 fold change [7]: inactive: 0.039
log2 fold change [8]: inactive: -0.025
log2 fold change [9]: inactive: -0.02
log2 fold change (tipifarnib): inactive: -0.063
log2 fold change (mubritinib): inactive: 0.038

LUC7L (UniProt Q9NQ29)
log2 fold change [1]: inactive: -0.009
log2 fold change (crizotinib): inactive: -0.028
log2 fold change [2]: inactive: -0.033
log2 fold change [3]: inactive: -0.001
log2 fold change (gandotinib): inactive: 0.199
log2 fold change [4]: inactive: 0.033
log2 fold change (doramapimod): inactive: 0.029
log2 fold change (ispinesib): inactive: -0.007
log2 fold change (bafetinib): inactive: 0.057
log2 fold change [5]: inactive: -0.046
log2 fold change (nilotinib): inactive: 0.049
log2 fold change [6]: active: -1.71
log2 fold change (dasatinib): inactive: 0.062
log2 fold change [7]: inactive: 0.109
log2 fold change [8]: inactive: -0.095
log2 fold change [9]: inactive: -0.054
log2 fold change (tipifarnib): inactive: 0.049
log2 fold change (mubritinib): inactive: -0.099

MAP3K20 isoform 2 (UniProt Q9NYL2)
log2 fold change [1]: inactive: 0.038
log2 fold change (crizotinib): inactive: -0.182
log2 fold change [2]: inactive: 0.082
log2 fold change (doramapimod): inactive: 0.096
log2 fold change (nilotinib): inactive: 0.098
log2 fold change [6]: inactive: 0.014
log2 fold change [7]: inactive: -0.07
log2 fold change (tipifarnib): inactive: 0.138
log2 fold change (mubritinib): inactive: -0.134

MAN2B2 (UniProt Q9Y2E5)
log2 fold change [1]: inactive: 0.051
log2 fold change (crizotinib): inactive: -0.014
log2 fold change [2]: inactive: 0.055
log2 fold change [4]: inactive: 0.004
log2 fold change (doramapimod): inactive: 0.017
log2 fold change (ispinesib): inactive: -0.147
log2 fold change (bafetinib): inactive: -0.302
log2 fold change (nilotinib): inactive: -0.171
log2 fold change [6]: inactive: 0.057
log2 fold change (dasatinib): inactive: 0.013
log2 fold change [7]: inactive: -0.023
log2 fold change [9]: inactive: -0.088
log2 fold change (tipifarnib): inactive: 0.093
log2 fold change (mubritinib): inactive: 0.147

LRRFIP1 (UniProt Q32MZ4)
log2 fold change [1]: inactive: -0.005
log2 fold change (crizotinib): inactive: 0.037
log2 fold change [2]: inactive: 0
log2 fold change [3]: inactive: 0.025
log2 fold change (gandotinib): inactive: 0.056
log2 fold change [4]: inactive: -0.059
log2 fold change (doramapimod): inactive: -0.025
log2 fold change (ispinesib): inactive: -0.019
log2 fold change (bafetinib): inactive: -0.034
log2 fold change [5]: inactive: -0.043
log2 fold change (nilotinib): inactive: 0.008
log2 fold change [6]: inactive: 0.002
log2 fold change (dasatinib): inactive: 0.038
log2 fold change [7]: inactive: -0.016
log2 fold change [8]: inactive: 0.024
log2 fold change [9]: inactive: 0.013
log2 fold change (tipifarnib): inactive: 0.016
log2 fold change (mubritinib): inactive: 0.035

MAP4K2 (UniProt Q12851)
log2 fold change [1]: inactive: -0.032
log2 fold change [3]: inactive: -0.129
log2 fold change (doramapimod): inactive: -0.091
log2 fold change (bafetinib): inactive: -0.116
log2 fold change (nilotinib): inactive: -0.187
log2 fold change [6]: inactive: 0.024
log2 fold change [7]: inactive: -0.13
log2 fold change [8]: inactive: -0.135
log2 fold change (tipifarnib): inactive: -0.048

MAP4K3 (UniProt Q8IVH8)
log2 fold change [1]: inactive: -0.089
log2 fold change (doramapimod): inactive: 0.002
log2 fold change (bafetinib): inactive: -0.36

MARCHF3 (UniProt Q86UD3)
log2 fold change [1]: inactive: 0.243
log2 fold change [2]: inactive: 0.029
log2 fold change (bafetinib): inactive: 0.109
log2 fold change (nilotinib): inactive: 0.156
log2 fold change [6]: inactive: 0.15
log2 fold change [7]: inactive: 0.036
log2 fold change (tipifarnib): inactive: 0.001

MAPK7 (UniProt Q13164)
log2 fold change (crizotinib): active: 0.773
log2 fold change [2]: inactive: 0.03
log2 fold change (gandotinib): inactive: 0.304
log2 fold change (doramapimod): inactive: 0.057
log2 fold change [5]: inactive: 0.034

MAF1 (UniProt Q9H063)
log2 fold change (ispinesib): inactive: -0.043
log2 fold change [9]: inactive: 0.064

MAD1L1 (UniProt Q9Y6D9)
log2 fold change (crizotinib): inactive: -0.08
log2 fold change [2]: inactive: -0.021
log2 fold change [3]: inactive: 0.524
log2 fold change (gandotinib): inactive: -0.053
log2 fold change (tozasertib): inactive: -0.137
log2 fold change (doramapimod): inactive: -0.156
log2 fold change (ispinesib): inactive: -0.099
log2 fold change (bafetinib): inactive: 0.047
log2 fold change [5]: inactive: -0.03
log2 fold change [8]: inactive: 0.027
log2 fold change [9]: inactive: 0.014
log2 fold change (tipifarnib): inactive: -0.235
log2 fold change (mubritinib): inactive: -0.129
